# Inconclusive means that the source gave no clear call. Such entries were picked first, then a sample of the others. A potency beside an inconclusive call is a rough fit, not a confirmed value. The source made the active and inactive calls. The calls were made as follows: active = hit-call score of the fitted dose curve at least 0.9, where 1 is the maximum; inconclusive = response in the unintended direction; inactive = score below 0.9.
# The chains behind the UniProt entries cited, without tags or fusion partners. Where a name states a change or a piece, a line headed by the entry shows the natural chain unless it says otherwise.
# UniProt P21730: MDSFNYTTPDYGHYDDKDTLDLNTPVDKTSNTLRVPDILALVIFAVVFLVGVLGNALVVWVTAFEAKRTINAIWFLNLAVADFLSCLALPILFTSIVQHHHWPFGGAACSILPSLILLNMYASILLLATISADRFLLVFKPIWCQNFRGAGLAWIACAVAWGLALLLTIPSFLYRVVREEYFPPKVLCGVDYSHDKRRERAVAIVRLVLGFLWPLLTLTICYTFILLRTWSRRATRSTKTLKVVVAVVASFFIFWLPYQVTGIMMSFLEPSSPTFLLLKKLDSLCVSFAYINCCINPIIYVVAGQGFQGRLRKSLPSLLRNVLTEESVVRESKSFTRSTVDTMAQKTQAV
# Molecular target: human Complement Component 5, Anaphylatoxin Receptor (C5a), C5AR1 (gene 728) (UniProt P21730)
# Test: NVS_GPCR_hC5a: NovaScreen (NVS) G Protein-Coupled Receptor Assay for human Complement Component 5, Anaphylatoxin Receptor (C5a)
# Method: NVS_GPCR_hC5a is a biochemical, single-readout assay that uses extracted gene-proteins from U937 in a cell-free assay. Measurements were taken 2 hours after chemical dosing in a 96-well plate.NVS_GPCR_hC5a is one of one assay component(s) measured or calculated from the NVS_GPCR_hC5a assay. It is designed to make measurements of radioligand binding, a form of binding reporter, as detected with scintillation counting signals by Filter-based radiodetection technology.Data from the assay component NVS_GPCR_hC5a was analyzed into 1 assay endpoint. This assay endpoint, NVS_GPCR_hC5a, was analyzed in the positive analysis fitting direction relative to DMSO as the negative control and baseline of activity. Using a type of binding reporter, loss-of-signal activity can be used to understand changes in the binding as they relate to the gene C5AR1. Furthermore, this assay endpoint can be referred to as a primary readout, because the performed assay has only produced 1 assay endpoint. To generalize the intended target to other relatable targets, this assay endpoint is annotated to the gpcr intended target family, where the subfamily is rhodopsin-like receptor.
# Binding assays used specific radioligands (tritiated, iodinated) with non-radioactive competitive displacement ligands in agonist or antagonist protocols (as indicated) and various reference compounds and inhibitors to titrate specific binding to receptors and transporters. Most enzyme assays (CYPs, kinases, phosphatases, proteases, HDACs) used recombinant protein and specific substrates (fluorescence mostly, some colorimetric and radioactive) and inhibitors, followed by a biochemical separation of substrate and product. All assays for the biochemical HTS were initially run in duplicate at a single concentration (10 uM for CYP450 assays and 25 uM for all others). Assay-chemical combinations meeting a pre-defined threshold (e.g., 30% inhibition and other criteria defined below) were then run in singleton concentration-response format with maximum concentration of 20 uM for CYPs and 50 uM for all others. […]
SMILES,outcome,AC50
CCC(C)(C)C(=O)OC1=C(c2ccc(Cl)cc2Cl)C(=O)OC12CCCCC2,inactive,–
CC(=O)[O][Hg][c]1ccccc1,–,inconclusive: 46.1 µM
CCCCOCN(C(=O)CCl)c1c(CC)cccc1CC,–,inconclusive: 25 µM

# Reference: PubChem BioAssay AID2283260 (EPA ToxCast)
